These are yes or no findings as the source states them, for the method shown. Some binding calls cover weakened binding; strength is not graded here.
Biological target: T1, recombinant human B7-H3 (human) (UniProt Q5ZPR3)
T1 sequence (looked up): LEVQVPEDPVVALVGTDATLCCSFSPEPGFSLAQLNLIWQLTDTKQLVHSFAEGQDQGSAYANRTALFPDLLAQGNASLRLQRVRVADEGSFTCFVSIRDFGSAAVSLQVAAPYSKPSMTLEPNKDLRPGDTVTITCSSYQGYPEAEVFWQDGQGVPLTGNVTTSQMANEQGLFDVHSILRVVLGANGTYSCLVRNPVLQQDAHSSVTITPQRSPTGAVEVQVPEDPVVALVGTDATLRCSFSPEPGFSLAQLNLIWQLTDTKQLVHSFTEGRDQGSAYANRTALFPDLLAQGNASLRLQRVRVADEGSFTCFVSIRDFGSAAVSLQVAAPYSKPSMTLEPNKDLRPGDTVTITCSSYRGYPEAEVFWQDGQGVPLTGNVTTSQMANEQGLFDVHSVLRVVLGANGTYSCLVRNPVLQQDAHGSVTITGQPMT
Test: B7-H3 binding ELISA, accelerated storage at 25 +/- 2 C through 6 months

- binding: binds
B1: enoblituzumab (antibody, human IgG1, kappa, V domains shown)
VH: EVQLVESGGGLVQPGGSLRLSCAASGFTFSSFGMHWVRQAPGKGLEWVAYISSDSSAIYYADTVKGRFTISRDNAKNSLYLQMNSLRDEDTAVYYCGRGRENIYYGSRLDYWGQGTTVTVSS
VL: DIQLTQSPSFLSASVGDRVTITCKASQNVDTNVAWYQQKPGKAPKALIYSASYRYSGVPSRFSGSGSGTDFTLTISSLQPEDFATYYCQQYNNYPFTFGQGTKLEIKR
